Results: patent publication US9179676B2, “Substituted picolinic acids and pyrimidine-4-carboxylic acids, method for the production thereof and use thereof as herbicides and plant growth regulators” (BAYER INTELLECTUAL PROPERTY GMBH, priority 2011, dated 2015)
Some results were stated once for a whole list of compounds, not compound by compound.

Columns and labels:
Assay type in all cases: in vivo
Amaranthus retroflexus [1] = experiment: Pre-emergence herbicidal action against harmful plants; settings: application rate 320 grams per hectare, scored visually after 3 to 4 weeks in greenhouse
Amaranthus retroflexus [2] = experiment: Post-emergence herbicidal action against harmful plants; settings: three-leaf stage, application rate 80 grams per hectare, scored visually after 3 to 4 weeks in greenhouse
Abutilon theophrasti [3] = experiment: as above; settings: three-leaf stage, application rate 80 grams per hectare, scored visually after 3 to 4 weeks in greenhouse
Echinocloa crus galli [4] = experiment: as above; settings: three-leaf stage, application rate 80 grams per hectare, scored visually after 3 to 4 weeks in greenhouse
Matricaria inodora [5] = experiment: as above; settings: three-leaf stage, application rate 80 grams per hectare, scored visually after 3 to 4 weeks in greenhouse
Stellaria media = experiment: Pre-emergence herbicidal action against harmful plants; settings: application rate 320 grams per hectare, scored visually after 3 to 4 weeks in greenhouse
Veronica persica = experiment: as above; settings: application rate 320 grams per hectare, scored visually after 3 to 4 weeks in greenhouse
Abutilon theophrasti [6] = experiment: as above; settings: application rate 320 grams per hectare, scored visually after 3 to 4 weeks in greenhouse
Matricaria inodora [7] = experiment: as above; settings: application rate 320 grams per hectare, scored visually after 3 to 4 weeks in greenhouse
Echinocloa crus galli [8] = experiment: as above; settings: application rate 320 grams per hectare, scored visually after 3 to 4 weeks in greenhouse

COC(=O)c1nc(-c2ccc3ccsc3c2)cc(N)c1Cl [Example 15.061]
at least 90%: activity against Amaranthus retroflexus (Amaranthus retroflexus [1]) | activity against Amaranthus retroflexus (Amaranthus retroflexus [2]) | activity against Abutilon theophrasti (Abutilon theophrasti [3]) | activity against Echinocloa crus galli (Echinocloa crus galli [4]) | activity against Matricaria inodora (Matricaria inodora [5]) | activity against Stellaria media (Stellaria media) | activity against Veronica persica (Veronica persica) | activity against Abutilon theophrasti (Abutilon theophrasti [6]) | activity against Matricaria inodora (Matricaria inodora [7]) | activity against Echinocloa crus galli (Echinocloa crus galli [8])
